From PubChem BioAssay AID296 (DTP/NCI, 2004)
The list is a part of this screen's results and no random one: it is rich in T/C values a quarter to a half above the control, in often repeated tests (any T/C) and in doses without a T/C. Other doses and runs of a compound stand elsewhere. T/C: endpoint of the treated group in % of that of the vehicle group. Schedules are NCI's codes, read here as Q, the interval in days (D) or hours (H), X, the number of doses. Some T/C values are negative: the treated tumours shrank. Some entries were tested several times; the results are listed from low to high. Additions like (4×) say how often a value occurs here. Some T/C values are followed by the survivors on the day toxicity was checked, most often the fifth; without a count, all were alive then. Some doses have a count of surviving animals in place of a T/C: the source holds a T/C of zero for them, seemingly a mark for toxic or unscored doses. Survivors were counted at the toxicity check, usually on the fifth day, unless a day is given; later deaths do not show. *1 amine or outer side, *2 acyl side, *3 side chain or, on linkers, in order; H or OH if unused. Where a SMILES comes first, the peptide text is derived from it. Bridges are numbered along the chain shown (N, C = ends). Roman numbers before positions name the chains, in order. [ ]: non-standard residue; d: D form. Actinocin(9to1) = Cc1c2oc3c(C)ccc(C(=O)[*:1])c3nc-2c(C(=O)[*:2])c(N)c1=O; aThr = C[C@H](O)[C@H](N)C(=O)O; NMeV = CN[C@H](C(=O)O)C(C)C; Sar = CNCC(=O)O

Test system: MX-1 breast xenograft, nude mice, tumor weight T/C
Experiment: NCI In Vivo Anticancer Drug Screen. Data for tumor model Human Mammary Carcinoma MX-1 Xenograft (intrarenal inoculation) in NU/NU Swiss (nude) mice
Details: T/C endpoint: mean tumor weight change, higher T/C = larger tumour; for T/C: evaluated on day 11
Summary of the method: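 Mice carrying the implanted tumor receive either test agent or vehicle. Tumor size or survival is then recorded for both groups. Results are stated as the treated-to-control quotient.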

[1] = dose: 450.0 mg/kg/injection, schedule: Q04DX003 (sc), vehicle: saline
[2] = dose: 900.0 mg/kg/injection, schedule: Q04DX003 (sc), vehicle: saline
[3] = dose: 4.0 mg/kg/injection, schedule: Q01DX010 (sc), vehicle: saline
[4] = dose: 8.0 mg/kg/injection, schedule: Q01DX010 (sc), vehicle: saline
[5] = dose: 600.0 mg/kg/injection, schedule: Q04DX003 (sc), vehicle: Klucel (hydroxypropylcellulose) (HPC)

**Q.** For `OC(CCl)CN1CC[N+]2(CC1)CC[N+]1(CCN(CC(O)CCl)CC1)CC2` (stereo unspecified), which T/C (dose: 16.0 mg/kg/injection, schedule: Q01DX010 (sc), vehicle: water) is on record?
**A.** The T/C was 129 % of control.

**Q.** What about the survivor count (dose: 853.3 mg/kg/injection, schedule: Q04DX003 (ip), vehicle: water) of the same molecule?
**A.** The survivor count was 0 of 3 on day 11.

**Q.** And the survivor count (dose: 853.3 mg/kg/injection, schedule: Q04DX003 (sc), vehicle: water)?
**A.** Its survivor count is 1 of 3 on day 11.

**Q.** And the survivor count (dose: 1024.0 mg/kg/injection, schedule: Q01DX010 (sc), vehicle: water)?
**A.** Its survivor count is 0 of 3 on day 11.

**Q.** Which results are given for `Brc1c(NC2=NCCN2)ccc2nccnc12`?
**A.** survivor count (dose: 800.0 mg/kg/injection, schedule: Q04DX003 (sc), vehicle: saline): 2 of 6 on day 11; survivor count (dose: 1600.0 mg/kg/injection, schedule: Q04DX003 (sc), vehicle: saline): 0 of 6 on day 11

**Q.** What does the source list for `CN(C)[C@@H]1C(=O)C(C(=O)NCN2CCN(C(=N)N=C(N)N)CC2)=C(O)[C@@]2(O)C(=O)C3=C(O)c4c(O)cccc4[C@@](C)(O)[C@H]3C[C@@H]12`?
**A.** survivor count (dose: 10.0 mg/kg/injection, schedule: Q04DX003 (ip), vehicle: suspension in saline): 2 of 6 on day 11; survivor count (dose: 20.0 mg/kg/injection, schedule: Q04DX003 (ip), vehicle: suspension in saline): 0 of 5 on day 11

**Q.** Which T/C (dose: 2400.0 mg/kg/injection, schedule: Q04DX003 (sc), vehicle: distilled water + Tween-80) does the source give for `O=C(O)CCCCCCCC(=O)O` here?
**A.** Its T/C is 128 % of control.

**Q.** With `O=C(O)CC(NC(=O)CP(=O)(O)O)C(=O)O.[NH-]C1CCCCC1[NH-].[Pt+2]` (stereo unspecified) as the molecule, how does the survivor count (dose: 100.0 mg/kg/injection, schedule: Q04DX003 (sc), vehicle: dextrose) read?
**A.** Its survivor count is 2 of 6 on day 11.

**Q.** What about the survivor count (dose: 200.0 mg/kg/injection, schedule: Q04DX003 (sc), vehicle: dextrose) of the same molecule?
**A.** The survivor count was 0 of 6 on day 11.

**Q.** Which results are given for `Cc1c2oc3c(C)ccc(C(=O)N[C@@H]4C(=O)N[C@H](C(C)C)C(=O)N5CCC[C@H]5C(=O)N(C)CC(=O)N(C)[C@@H](C(C)C)C(=O)O[C@H]4C)c3nc-2c(C(=O)N[C@@H]2C(=O)N[C@H](C(C)C)C(=O)N3CCC[C@H]3C(=O)N(C)CC(=O)N(C)[C@@H](C(C)C)C(=O)O[C@H]2C)c(N)c1=O` (I: [aThr][dV]P[Sar][NMeV] / II: [aThr][dV]P[Sar][NMeV]; ester I:1-I:C, II:1-II:C; linker I:N-II:N via Actinocin(9to1))?
**A.** survivor count (dose: 2.0 mg/kg/injection, schedule: Q04DX003 (sc), vehicle: saline): 0 of 6 on day 11; survivor count (dose: 200.0 micrograms/kg/injection, schedule: Q01DX010 (sc), vehicle: saline): 0 of 3 on day 11; survivor count (dose: 400.0 micrograms/kg/injection, schedule: Q01DX010 (sc), vehicle: saline): 0 of 3 on day 11 and 0 of 6 on day 11; survivor count (dose: 800.0 micrograms/kg/injection, schedule: Q01DX010 (sc), vehicle: saline): 0 of 3 on day 11

**Q.** How did the survivor count (dose: 1600.0 mg/kg/injection, schedule: Q04DX003 (sc), vehicle: saline with Tween-80) turn out when `CC(=O)Oc1ccc[nH]c1=O` was run?
**A.** The survivor count was 0 of 6 on day 11.

**Q.** Which T/C (dose: 225.0 mg/kg/injection, schedule: Q04DX003 (sc), vehicle: saline) does the source give for `CCOC(=O)C(N)CSC(=O)NC` (stereo unspecified) here?
**A.** Its T/C is -70, 7, 44, 70 % of control.

**Q.** What about the T/C [1] of the same molecule?
**A.** Its T/C is -100, -64, 18 % of control.

**Q.** What about the survivor count [1] of the same molecule?
**A.** Its survivor count is 3 of 6 on day 11.

**Q.** What about the T/C [2] of the same molecule?
**A.** The T/C was -100, -65, 3 % of control.

**Q.** What about the survivor count [2] of the same molecule?
**A.** Its survivor count is 3 of 5 on day 11.

**Q.** And the survivor count (dose: 1800.0 mg/kg/injection, schedule: Q04DX003 (sc), vehicle: saline)?
**A.** Its survivor count is 0 of 6 on day 11.

**Q.** For `O=C(Nc1nncs1)c1ccncc1`, which T/C (dose: 300.0 mg/kg/injection, schedule: Q04DX003 (sc), vehicle: saline with Tween-80) is on record?
**A.** The T/C was 125 % of control.

**Q.** With `CO[C@H]1C[C@](C)(O)Cc2cc3c(c(O)c21)C(=O)c1c(O)cc2c(c1C3=O)O[C@@H]1O[C@@]2(C)[C@H](O)[C@@H](N(C)C)[C@@H]1O` as the molecule, how does the survivor count (dose: 25.0 mg/kg/injection, schedule: Q01DX010 (sc), vehicle: other) read?
**A.** The survivor count was 0 of 3 on day 11.

**Q.** With `BrC1c2cccc3cccc(c23)C1Br` (stereo unspecified) as the molecule, how does the T/C (dose: 1200.0 mg/kg/injection, schedule: Q04DX003 (sc), vehicle: saline with Tween-80) read?
**A.** Its T/C is 136 % of control.

**Q.** For `N=[N+]=CC(=O)OCC(N)C(=O)O` (stereo unspecified), which survivor count (dose: 25.0 mg/kg/injection, schedule: Q01DX010 (sc), vehicle: saline) is on record?
**A.** Its survivor count is 0 of 3 on day 11.

**Q.** For `N=C(N)CCCCCCCCC(=N)N`, which T/C (dose: 4.69 mg/kg/injection, schedule: Q04DX003 (sc), vehicle: saline) is on record?
**A.** The T/C was 146 % of control.

**Q.** And the T/C (dose: 9.38 mg/kg/injection, schedule: Q04DX003 (sc), vehicle: saline)?
**A.** The T/C was 140 % of control.

**Q.** And the survivor count (dose: 37.5 mg/kg/injection, schedule: Q04DX003 (sc), vehicle: saline)?
**A.** The survivor count was 3 of 6 on day 11.

**Q.** Which results are given for `COc1ccc(CC2C(=O)NC(C)C(=O)N(C)C3Cc4ccc(cc4)Oc4cc(ccc4O)CC(C(=O)NC(C)C(=O)NC(C)C(=O)N2C)N(C)C3=O)cc1` (stereo unspecified)?
**A.** survivor count (dose: 32.0 mg/kg/injection, schedule: Q04DX003 (sc), vehicle: saline with Tween-80): 0 of 6 on day 11; survivor count (dose: 48.0 mg/kg/injection, schedule: Q04DX003 (sc), vehicle: saline with Tween-80): 0 of 6 on day 11; survivor count (dose: 64.0 mg/kg/injection, schedule: Q04DX003 (sc), vehicle: saline with Tween-80): 0 of 6 on day 11

**Q.** How did the T/C (dose: 1.0 mg/kg/injection, schedule: Q01DX010 (sc), vehicle: saline) turn out when `N[C@@H](Cc1ccc(N(CCCl)CCCl)cc1)C(=O)O` was run?
**A.** Its T/C is 3, 6, 7 % of control (2×).

**Q.** What about the T/C (dose: 2.0 mg/kg/injection, schedule: Q01DX010 (sc), vehicle: saline) of the same molecule?
**A.** The T/C was -78, -70, -48, -27 % of control [2 of 2 alive on day 11].

**Q.** And the survivor count (dose: 4.0 mg/kg/injection, schedule: Q01DX010 (ip), vehicle: saline)?
**A.** Its survivor count is 0 of 3 on day 11.

**Q.** And the T/C [3]?
**A.** Its T/C is -89, -85, -12 % of control.

**Q.** And the survivor count [3]?
**A.** Its survivor count is 0 of 3 on day 11.

**Q.** What about the survivor count (dose: 4.0 mg/kg/injection, schedule: Q01DX010 (sc), vehicle: suspension in saline) of the same molecule?
**A.** Its survivor count is 1 of 2 on day 11.

**Q.** And the survivor count (dose: 8.0 mg/kg/injection, schedule: Q01DX010 (ip), vehicle: saline)?
**A.** Its survivor count is 0 of 3 on day 11.

**Q.** And the T/C [4]?
**A.** Its T/C is -88 % of control.

**Q.** And the survivor count [4]?
**A.** The survivor count was 0 of 3 on day 11 and 1 of 2 on day 11.

**Q.** What about the survivor count (dose: 8.0 mg/kg/injection, schedule: Q01DX010 (sc), vehicle: suspension in saline) of the same molecule?
**A.** The survivor count was 0 of 3 on day 11.

**Q.** What about the survivor count (dose: 12.0 mg/kg/injection, schedule: Q04DX003 (sc), vehicle: saline) of the same molecule?
**A.** Its survivor count is 0 of 6 on day 11.

**Q.** What about the survivor count (dose: 12.0 mg/kg/injection, schedule: Q04DX003 (sc), vehicle: suspension in saline) of the same molecule?
**A.** The survivor count was 3 of 6 on day 11.

**Q.** And the survivor count (dose: 13.3 mg/kg/injection, schedule: Q04DX003 (ip), vehicle: saline)?
**A.** The survivor count was 0 of 3 on day 11.

**Q.** What about the survivor count (dose: 13.3 mg/kg/injection, schedule: Q04DX003 (sc), vehicle: saline) of the same molecule?
**A.** The survivor count was 0 of 3 on day 11.

**Q.** What about the survivor count (dose: 26.6 mg/kg/injection, schedule: Q04DX003 (ip), vehicle: saline) of the same molecule?
**A.** Its survivor count is 0 of 3 on day 11.

**Q.** And the survivor count (dose: 26.6 mg/kg/injection, schedule: Q04DX003 (sc), vehicle: saline)?
**A.** The survivor count was 0 of 3 on day 11.

**Q.** `Nc1ncnc2c(C3OC(CO)C(O)C3O)[nH]nc12` (stereo unspecified) was tested. Which survivor count (dose: 300.0 mg/kg/injection, schedule: Q04DX003 (sc), vehicle: Klucel (hydroxypropylcellulose) (HPC)) did it give?
**A.** The survivor count was 0 of 6 on day 11 and 3 of 6 on day 11.

**Q.** What about the survivor count [5] of the same molecule?
**A.** The survivor count was 0 of 6 on day 11.

**Q.** What about the survivor count (dose: 600.0 mg/kg/injection, schedule: Q04DX003 (sc), vehicle: suspension in saline) of the same molecule?
**A.** Its survivor count is 0 of 6 on day 11.

**Q.** For `CC(CN1CC(=O)NC(=O)C1)N1CC(=O)NC(=O)C1` (stereo unspecified), which survivor count [5] is on record?
**A.** The survivor count was 3 of 6 on day 11.

**Q.** And the survivor count (dose: 1200.0 mg/kg/injection, schedule: Q04DX003 (sc), vehicle: Klucel (hydroxypropylcellulose) (HPC))?
**A.** The survivor count was 0 of 6 on day 11.

**Q.** For `O=C1N=C(Oc2ccccc2)SC1=O`, which T/C (dose: 100.0 mg/kg/injection, schedule: Q04DX003 (sc), vehicle: saline with Tween-80) is on record?
**A.** Its T/C is 127 % of control.

**Q.** And the T/C (dose: 200.0 mg/kg/injection, schedule: Q04DX003 (sc), vehicle: saline with Tween-80)?
**A.** The T/C was 139 % of control.

**Q.** What about the survivor count (dose: 800.0 mg/kg/injection, schedule: Q04DX003 (sc), vehicle: saline with Tween-80) of the same molecule?
**A.** The survivor count was 3 of 6 on day 11.
